The exact form of at least one protein or probe is not confirmed. Weaker means in comparison with the reference protein, sequence or condition of that experiment. At least one verdict was read from the data and is not stated in words by the source.
System: NELF complex WT
Test: EMSA (NELF release from PEC)
Conditions: effect depends on RNA length; 20 mM Na-HEPES pH 7.4, 100 mM NaCl, 25 mM KCl, 3 mM MgCl2, 2 mM DTT; assembly 30 °C, eRNA incubation 15-20 min at room …; 3.5% native PAGE 0.5x TBE at 4 °C; recombinant protein; protein details: His-tag (Ni-NTA purified)

Question: Does “GAGAGAGAGAGAGAGAGAGAGAGAGAGAGAGAGAGAGAGA [poly(GA), 40 nt]” bind?
Answer: binds more weakly
